The values below come from publication PMC9021288 (Nature Communications, 2022).

This data set is described as follows: in vitro. The note with it: human.

Usually Papp A→B stands for the apparent permeability from the apical to the basolateral side of a cell layer. The Papp B→A is the apparent permeability from the basolateral to the apical side of a cell layer. Usually efflux ratio stands for the permeability from basolateral to apical divided by that in the opposite direction, in the common usage. The Papp is a coefficient for how fast a substance crosses the barrier. A higher Papp goes with fast passage. For the molecule `CC(C)NCC(O)COc1ccc(CC(N)=O)cc1` (stereo not shown) [Atenolol], where the note is “Caco-2, pH 7.4”, the Papp A→B at 9000 Sec, 2 µM came out at 0.4 ×10⁻⁶ cm/s; the Papp B→A at 9000 Sec, 2 µM was found to be 0.4 ×10⁻⁶ cm/s; the efflux ratio at 9000 Sec, 2 µM came out at 1. For the same molecule, the Papp at 9000 Sec, 2 µM (Caco-2, pH 7.4, Papp n=1, 2) worked out at 0.37 ×10⁻⁶ cm/s.
